From US20240166658A1, “PORPHYRIN DERIVATIVES AND USES THEREOF” (University of Tasmania, priority 2021, published 2024)

Experiments:
[1] = PFCA guest response across the nine PFCAs (UV-Vis, RGB, one-way ANOVA variance)
Method: (§1) Experiments were performed at concentrations that could be monitored by the naked eye for practical sensing of PFAS in the field. Complexes of hosts (9), (11) and (12) were formed with the nine different perfluorocarboxylic acids (PFCAs) shown in Table 2 above and the colours of each host−PFCA complex were photographed in a lightbox and analysed using ImageJ software RGB analysis. Pixels of the solution were chosen at random to provide an RGB value. Multiple RGB values were recorded for each host−PFCA solution, and an average colour can be produced. From those values an RGB parameter was used to give a response value for modelling (Tahir et al., 2016).
(§2) After preliminary screenings, UV-Vis spectra were collected before and after the addition of 1 molar equivalent of each PFCA for each host, and the degree of complexation was noted by shifts in the Soret bands and formation of a peak at ca. 650 nm. To eliminate dilution effects, PFCA guest solutions were prepared in the equivalent concentration of host. If there was a notable host−guest interaction for a particular PFCA, the host−guest binding was investigated with more rigorous UV-Vis experiments, binding studies, and further colour analyses. Throughout these investigations, PFOA was considered the “average” PFCA both because of its position in the range of PFCA sizes and because its prevalence is often an indication of broader PFAS contamination. In any experiment where binding was further investigated for a particular PFCA, it was typically replicated with PFOA for comparison.
One-way factorial ANOVA was used to examine the dependence (or independence) of two or more factors affecting the dependent variable concurrently, in the present case the change in absorption, or the change in RGB response across the tested PFCAs, or across the different hosts. This analysis was used to determine the variance in the responses of each host across the different PFCAs. […] Sensor (12) had the lowest deviation and variance across the nine PFCAS; although its colour change was not the most intense, it gives a similar response across the range of PFCAs.

[2] = PFCA guest response screening (RGB analysis, UV-Vis); conditions: ImageJ
Method: A Puluz® 20 cm portable light tent with moderate and dispersed white LED lighting was used to photograph samples using an iPhone 6S plus camera on a fixed tripod. The automatic flash settings were disabled so there was no reflective interference on the sample vials. Samples that were being directly compared were photographed together to ensure lighting conditions and settings were consistent. The photographs were analysed using ImageJ software according to the procedure of Gallagher, 2014b. Multiple RGB values were chosen from areas of each sample at random to provide an “average” RGB value (Menesatti et al., 2012; Gallagher, 2014a; Phuangsaijai et al., 2021). Those RGB values were used to produce an artificial colour tile for visual comparison, or parameterized for modelling.
To quantify a colour difference, RGB values were transformed within the CIELab colour space. The difference, expressed as ΔE, was determined by measuring the relative distance between two colours. The numeric ΔE value can be used to predict how the two colours are perceived by a standard observer; a ΔE>2 is considered the minimum value to achieve a “just noticeable difference” (JND) (Table 1), which is the smallest difference required for an untrained observer to be able to determine two colours as being different (Castillo et al., 2021).
as §1, §2

[3] = Colorimetric matching of mixed PFCA samples, low concentration
Method: In the “low” PFCA concentration experiment, the RGB response values had the greatest rate of change from 0-40 ppb PFOA and appeared to level out between 40-80 ppb PFOA. In that instance, the regression was fit for a host : guest ratio of 0-0.8. To probe the sensor's response to a mixture of PFCAs, samples containing combinations of PFHxA, PFHpA, and PFDA in dichloromethane (7-28 ppb) were prepared and the RGB responses were collected. The PFCA concentrations for the samples were predicted using the PFOA regression (y=0.0591 ln(x)+0.037, R^2=0.9771).
The lowest concentration PFCA sample (7 ppb) was predicted to be ca. 11 ppb (58% error) from the PFOA regression, whilst the higher concentration mixed PFCA samples (14.1 and 28.8 ppb) were predicted to be ca. 16 and 23 ppb (17 and 18% error respectively). Thus, host (12) may be coupled with a phone camera to estimate mixed PFCA concentrations from RGB data with <20% error, or used visually for threshold detection of total PFCA concentrations above 10 ppb.

[4] = host + PFDoDA in dichloromethane

Row | SMILES | variance (σ^2) in the RGB values across the range of PFCAs ([1]; one-way ANOVA) | Av(Blue) ([2]; host + PFDA in dichloromethane) | Av(Green) ([2]; host + PFDA in dichloromethane) | Av(RGB) ([2]; host + PFDA in dichloromethane) | Av(Red) ([2]; host + PFDA in dichloromethane) | G − R ([2]; host + PFDA in dichloromethane) | Av(Blue) [2, 4] | Av(Green) [2, 4] | Av(RGB) [2, 4] | Av(Red) [2, 4] | G − R [2, 4] | Av(Blue) ([2]; host + PFOA in dichloromethane) | Av(Green) ([2]; host + PFOA in dichloromethane) | Av(RGB) ([2]; host + PFOA in dichloromethane) | Av(Red) ([2]; host + PFOA in dichloromethane) | G − R ([2]; host + PFOA in dichloromethane) | also measured
1 | O=C(Nc1ccccc1-c1c2nc(c(-c3ccccc3NC(=O)C(F)(F)C(F)(F)C(F)(F)F)c3ccc([nH]3)c(-c3ccccc3NC(=O)C(F)(F)C(F)(F)C(F)(F)F)c3nc(c(-c4ccccc4NC(=O)C(F)(F)C(F)(F)C(F)(F)F)c4ccc1[nH]4)C=C3)C=C2)C(F)(F)C(F)(F)C(F)(F)F [host (11), α,α,α,α-5,10,15,20-tetra(2-(heptafluorobutanoylamino)phenyl) porphyrin] | 135 | 102 | 165 | 145 | 167 | −2 | 101 | 165 | 145 | 170 | −5 | 82 | 172 | 138 | 161 | 11 | Soret band of the host−PFCA complex ([1]; host alone ca. 416 nm, dichloromethane): ca. 444 nm
2 | O=C(Nc1ccccc1-c1c2nc(c(-c3ccccc3NC(=O)C(F)(F)C(F)(F)C(F)(F)C(F)(F)C(F)(F)C(F)(F)C(F)(F)C(F)(F)C(F)(F)C(F)(F)C(F)(F)F)c3ccc([nH]3)c(-c3ccccc3NC(=O)C(F)(F)C(F)(F)C(F)(F)C(F)(F)C(F)(F)C(F)(F)C(F)(F)C(F)(F)C(F)(F)C(F)(F)C(F)(F)F)c3nc(c(-c4ccccc4NC(=O)C(F)(F)C(F)(F)C(F)(F)C(F)(F)C(F)(F)C(F)(F)C(F)(F)C(F)(F)C(F)(F)C(F)(F)C(F)(F)F)c4ccc1[nH]4)C=C3)C=C2)C(F)(F)C(F)(F)C(F)(F)C(F)(F)C(F)(F)C(F)(F)C(F)(F)C(F)(F)C(F)(F)C(F)(F)C(F)(F)F [host (12), α,α,α,α-5,10,15,20-tetrakis(2-(tricosafluorododecanoylamino)phenyl) porphyrin] | 15 | 101 | 174 | 148 | 170 | 3 | 111 | 177 | 157 | 181 | −4 | 104 | 176 | 150 | 170 | 6 | prediction error ([3]; 7 ppb PFCA sample): 58%; prediction error ([3]; 14.1 ppb mixed PFCA sample): 17%; prediction error ([3]; 28.8 ppb mixed PFCA sample): 18%; error of mixed PFCA concentration estimated from RGB data ([3]; coupled with a phone camera): < 20%; variance (σ^2) of absorbance at 650 nm across PFCA chain lengths ([1]; one-way ANOVA): 9.7×10^−5; variance (σ^2) of green value from ImageJ analysis ([1]; one-way ANOVA): 14
3 | O=C(Nc1ccccc1-c1c2nc(c(-c3ccccc3NC(=O)C(F)(F)C(F)(F)C(F)(F)C(F)(F)C(F)(F)C(F)(F)C(F)(F)F)c3ccc([nH]3)c(-c3ccccc3NC(=O)C(F)(F)C(F)(F)C(F)(F)C(F)(F)C(F)(F)C(F)(F)C(F)(F)F)c3nc(c(-c4ccccc4NC(=O)C(F)(F)C(F)(F)C(F)(F)C(F)(F)C(F)(F)C(F)(F)C(F)(F)F)c4ccc1[nH]4)C=C3)C=C2)C(F)(F)C(F)(F)C(F)(F)C(F)(F)C(F)(F)C(F)(F)C(F)(F)F [host (9), α,α,α,α-5,10,15,20-tetrakis(2-(pentadecafluorooctanoylamino)phenyl)porphyrin] | 110 | 82 | 174 | 139 | 160 | 14 | 106 | 162 | 144 | 165 | −3 | 86 | 175 | 141 | 163 | 12 | 
